For one assay, the target named is HA-TRIM28 (human) (UniProt Q13263). Kind of assay: co-IP; Flag-RIPK1 and HA-TRIM28 co-transfected into HEK293T cells; immunoprecipitation with anti-Flag magnetic beads and blot for HA-TRIM28, and vice versa; cells lysed in RIPA buffer, 4 °C, washed three times with lysis buffer.
The next assay concerns the target Flag-RIPK1 (human) (UniProt Q13546). The assay is described as above.
Assay [1] deals with endogenous RIPK1 (H1299 cells) (human (endogenous in H1299)) (UniProt Q13546). Kind of assay: co-IP; endogenous proteins in lysates of CMT-167 and H1299 cells; primary antibody overnight at 4 °C, Protein G beads, immunoblotting; which protein was precipitated is not told. (Immunoblotting shows a protein as a band on a membrane.)

Chains of the proteins cited; added tags and fusions are not shown.
UniProt Q13263: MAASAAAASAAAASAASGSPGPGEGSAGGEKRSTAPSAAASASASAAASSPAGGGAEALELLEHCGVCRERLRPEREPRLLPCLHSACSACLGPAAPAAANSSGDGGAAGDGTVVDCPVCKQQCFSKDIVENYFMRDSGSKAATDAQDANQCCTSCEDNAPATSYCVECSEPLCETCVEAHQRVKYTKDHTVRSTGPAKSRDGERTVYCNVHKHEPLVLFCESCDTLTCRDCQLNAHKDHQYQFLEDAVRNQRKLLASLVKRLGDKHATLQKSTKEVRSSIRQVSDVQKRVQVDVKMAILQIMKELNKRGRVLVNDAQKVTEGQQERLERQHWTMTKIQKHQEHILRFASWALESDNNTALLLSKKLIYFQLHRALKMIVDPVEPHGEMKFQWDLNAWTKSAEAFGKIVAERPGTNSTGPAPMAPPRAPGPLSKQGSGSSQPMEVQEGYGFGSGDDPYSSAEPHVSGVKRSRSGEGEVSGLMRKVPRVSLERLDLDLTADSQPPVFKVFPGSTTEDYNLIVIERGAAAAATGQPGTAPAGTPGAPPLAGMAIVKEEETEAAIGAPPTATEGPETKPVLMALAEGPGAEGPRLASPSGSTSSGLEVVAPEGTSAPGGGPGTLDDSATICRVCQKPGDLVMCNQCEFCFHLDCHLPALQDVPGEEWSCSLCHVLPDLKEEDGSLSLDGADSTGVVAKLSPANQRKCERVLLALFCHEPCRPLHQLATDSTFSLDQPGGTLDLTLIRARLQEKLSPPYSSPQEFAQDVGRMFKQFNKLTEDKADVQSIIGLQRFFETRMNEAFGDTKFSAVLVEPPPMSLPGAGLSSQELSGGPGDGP
UniProt Q13546: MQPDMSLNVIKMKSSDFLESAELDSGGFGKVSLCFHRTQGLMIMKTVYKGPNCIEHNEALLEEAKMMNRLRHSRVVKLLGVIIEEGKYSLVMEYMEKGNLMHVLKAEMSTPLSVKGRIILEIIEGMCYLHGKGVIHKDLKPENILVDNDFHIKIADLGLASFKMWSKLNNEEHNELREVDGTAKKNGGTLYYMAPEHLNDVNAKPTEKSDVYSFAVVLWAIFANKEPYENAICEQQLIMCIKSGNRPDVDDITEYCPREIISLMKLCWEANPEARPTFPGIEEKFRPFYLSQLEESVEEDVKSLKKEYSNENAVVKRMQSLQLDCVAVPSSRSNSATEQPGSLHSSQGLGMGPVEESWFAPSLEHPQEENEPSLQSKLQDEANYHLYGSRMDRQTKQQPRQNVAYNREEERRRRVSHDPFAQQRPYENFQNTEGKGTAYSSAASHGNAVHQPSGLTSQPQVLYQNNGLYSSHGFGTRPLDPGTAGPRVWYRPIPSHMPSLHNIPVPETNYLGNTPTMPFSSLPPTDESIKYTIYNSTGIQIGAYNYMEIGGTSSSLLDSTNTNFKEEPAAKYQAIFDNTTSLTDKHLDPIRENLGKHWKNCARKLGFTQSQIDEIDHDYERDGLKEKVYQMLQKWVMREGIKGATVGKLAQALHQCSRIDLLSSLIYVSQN

No constants are given. Whether binding was seen depends on the method and setting. In cells and extracts the contact can be indirect. Some entries that bind do so weakly or less than the wild type.

Take Flag-RIPK1 (from UniProt Q13546 1-671): the binding result with HA-TRIM28 (human) was “binds”.

For the substance HA-TRIM28 (from UniProt Q13263 1-835), in the assay with Flag-RIPK1 (human), the binding entry is “binds”.

As for “endogenous TRIM28 (H1299 cells) (from UniProt Q13263 1-835)”, in assay [1], the binding entry is “binds”.

These data come from article PMC10589970.
